Two molecules from patent EP0748793A1, “KETOPANTHENOL WITH ACETYLATING PROPERTIES” (TOVARISCHESTVO S OGRANICHENNOI OTVETSTVENNOSTJU " PANT", priority 1994, dated 1995) can be followed below.

The test system of the data set is acetylation of aromatic amines (N-acetylation). The data set is described as follows: Acetylating properties of the organism: acetylation of sodium sulfacyl, arylamines determined in urine. To be noted: rats, agent i.p. for 4 days, then Na sulfacyl 20 mg/kg i.p. In kind it is in vivo, white rats. How it is done: The level of the organism supply with a vitamin is determined by the study of the reaction of acetylation of exogenous aromatic amines. The total acetylating properties of the organism were assessed by the method of quantitative determination of the content of arylamines in the examined substrate (urine).
Sodium sulfacyl was chosen as the substance for acetylation.
The influence of 4-days of injections of ketopanthenol on the acetylating properties of white rats was examined during the experiments.
The experiments were carried out using mongrel pubescent male rats. 14 animals were included in each group. The examined agent was injected intraperitoneally in a dose of 29 mg/kg. On the 4th day 4 hours after the last injection of the examined agent the sodium sulfacyl solution in a dose of 20 mg/kg was injected intraperitoneally. All the rats were separated into exchangeable cages for urine gathering. The resulting data were compared with the control groups (group I - only received sodium sulfacyl in a dose of 20 mg/kg, and group II received calcium D-pantothenate).
The average weight of the animals in the group fluctuated within 154.7 ± 10.8 g, the absolute dose of sodium sulfacyl was 3.09 ± 0.14 mg.

Structures are written as SMILES.

Turning to `CC(C)(CO)C(=O)C(=O)NCCCO` [ketopanthenol], the “Diuresis M± m” value is recorded as 1.7 ± 0.3.

As for `CC(C)(CO)[C@@H](O)C(=O)NCCC(=O)O` [D (+) pantothenate Ca, calcium D-pantothenate, reference compound], the “Diuresis M± m” value is reported as 3.9 ± 0.2.
